Results are given in words; binding and its absence hold for the method and conditions named. Binding calls can cover weak binding; strength is not graded here.

Test [1] concerns the target T1, Hydrogenase-1 small (β) subunit (E. coli) (UniProt P69739).
T1 sequence: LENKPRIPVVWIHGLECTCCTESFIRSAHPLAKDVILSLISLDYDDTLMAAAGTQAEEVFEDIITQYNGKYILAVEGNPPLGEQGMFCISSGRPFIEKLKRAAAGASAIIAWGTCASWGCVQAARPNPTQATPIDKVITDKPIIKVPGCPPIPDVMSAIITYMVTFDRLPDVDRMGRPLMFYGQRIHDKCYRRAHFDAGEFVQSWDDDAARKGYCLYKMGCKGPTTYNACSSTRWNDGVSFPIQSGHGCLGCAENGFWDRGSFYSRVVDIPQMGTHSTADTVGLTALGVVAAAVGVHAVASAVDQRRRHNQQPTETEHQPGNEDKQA
As to the kind of experiment: SEC; Superdex 200 HR 10/30, running buffer with 0.02 % Triton X-100, pH 7.0, 50 mM sodium phosphate, 0.10 M NaCl, 4 °C, 0.15 mL/min; column calibrated with protein standards; dimer peak run again after 5 days at 4 °C; fractions analysed by SDS-PAGE; (αβ)2 dimer to (αβ) monomers; both purified. In general terms: Size exclusion chromatography separates by hydrodynamic size, large species first.

The target of test [2] is T1, Hydrogenase-1 small (β) subunit (E. coli). The test can be described thus: SEC; freshly isolated Hyd-1 incubated 2 h with ca. 1 % digitonin, Superdex 200 HR 10/30, running buffer with 0.007 % digitonin, pH 7.0, 50 mM sodium phosphate, 0.10 M NaCl, 4 °C, 0.15 mL/min; full calibration; fractions analysed by SDS-PAGE; (αβ)2 dimer to (αβ) monomers; both purified.

“Hydrogenase-1 large (α) subunit (from UniProt P0ACD8)”: the binding entry in test [1] and in test [2] was “binds” throughout.

(Values after paper PMC4771823, “How the oxygen tolerance of a [NiFe]-hydrogenase depends on quaternary structure” (Journal of Biological Inorganic Chemistry, 2016).)
